PubChem BioAssay AID1053208 – Peter MacCallum Cancer Centre – 2014
The whole screen tested about 17,000 reagents; this is a part drawn at random. 788 of them (4.7%) were called active. 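Calls rest on z-score classes alone; an extra cut-off of viability at most 70% of control was not applied to them.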 Reagents against one gene are numbered here. Not all columns of the deposit are shown. Reagent sequences are not shown.

Purpose: 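Synthetic lethal interactions between gene loss and doxorubicin in osteosarcoma cells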 (primary screen)
Cells: mouse osteosarcoma cells, early-passage culture from an engineered mouse model of fibroblastic bone tumour
Reagents: siRNA pool against mouse genes, 40 nM
Timing: about 120 h (48 h before drug, then 72 h with drug)
Treatment: doxorubicin 100 nM for 72 h, roughly 30-40% inhibitory dose
Measurement: 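Viability read as ATP luminescence after 72 h of 100 nM doxorubicin or none, duplicate wells averaged, scaled to non-targeting siRNA, then expressed as robust z-scores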
Direction: viability z-score with doxorubicin: higher = more viable cells under doxorubicin; viability z-score without drug: higher = more viable cells with knock-down alone; z-score of drug to no-drug ratio: higher = less drug sensitisation by knock-down
Active means: 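Called active if knock-down leaves viability unchanged without drug (z within -2 to 2) but lowers it with doxorubicin (z at or under -2)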

gene knocked down,reagent,combined z-score class,viability z-score with doxorubicin,viability z-score without drug,z-score of drug to no-drug ratio,Call
Ncf1,1,no change with or without drug,0.45,-0.17,0.67,inactive
Or4b12,1,no change with or without drug,-1.01,-1.18,-0.11,inactive
Shc1,1,high cell count with doxorubicin only,2.36,0.17,2.47,inactive
Ptges3l,1,no change with or without drug,-1.57,-1.18,-0.79,inactive
Dnaaf2,1,no change with or without drug,-0.79,-0.84,-0.11,inactive
Zfp473,1,no change with or without drug,0.67,-0.34,1.12,inactive
Trp53rkb,1,no change with or without drug,-1.35,-1.35,-0.45,inactive
Apeh,1,no change with or without drug,1.01,0.67,0.67,inactive
Nsun7,1,no change with or without drug,-0.34,0.84,-0.79,inactive
St6gal2,1,no change with or without drug,-0.45,0.84,-0.9,inactive
Xab2,1,low cell count with doxorubicin only,-2.81,-1.52,-2.02,active
Eef2,1,no change with or without drug,-1.12,-1.18,-0.34,inactive
Txndc17,1,no change with or without drug,0,-0.17,0.22,inactive
Zfp637,1,low cell count without drug only,-0.79,-2.87,1.57,inactive
Flacc1,1,no change with or without drug,0.56,-0.34,0.9,inactive
Zfp27,1,no change with or without drug,-0.22,1.52,-1.12,inactive
Pln,1,no change with or without drug,-1.35,-0.84,-0.79,inactive
Pex6,1,no change with or without drug,1.12,1.18,0.45,inactive
C030006K11Rik,1,no change with or without drug,-0.56,-0.34,-0.22,inactive
Tma7,1,no change with or without drug,-0.34,-0.17,-0.11,inactive
Abca12,1,no change with or without drug,-0.67,-0.67,-0.11,inactive
Pitpnc1,1,high cell count without drug only,0.9,3.04,-0.9,inactive
Kif2c,1,no change with or without drug,-0.45,1.18,-1.12,inactive
Zfp553,1,no change with or without drug,0.45,0.34,0.34,inactive
Tspyl1,1,no change with or without drug,-0.34,-0.84,0.34,inactive
Or6c205,1,no change with or without drug,-0.9,-0.84,-0.22,inactive
Or6c205,2,high cell count without drug only,1.57,2.36,0.11,inactive
Msl3l2,1,high cell count without drug only,0.45,2.19,-0.79,inactive
Gopc,1,no change with or without drug,-0.22,1.18,-0.9,inactive
Tapt1,1,high cell count without drug only,0.56,2.02,-0.56,inactive

Reformatted: results already given.
{"gene knocked down":"Ncf1","reagent":1,"combined z-score class":"no change with or without drug","viability z-score with doxorubicin":0.45,"viability z-score without drug":-0.17,"z-score of drug to no-drug ratio":0.67,"Call":"inactive"}
{"gene knocked down":"Or4b12","reagent":1,"combined z-score class":"no change with or without drug","viability z-score with doxorubicin":-1.01,"viability z-score without drug":-1.18,"z-score of drug to no-drug ratio":-0.11,"Call":"inactive"}
{"gene knocked down":"Shc1","reagent":1,"combined z-score class":"high cell count with doxorubicin only","viability z-score with doxorubicin":2.36,"viability z-score without drug":0.17,"z-score of drug to no-drug ratio":2.47,"Call":"inactive"}
{"gene knocked down":"Ptges3l","reagent":1,"combined z-score class":"no change with or without drug","viability z-score with doxorubicin":-1.57,"viability z-score without drug":-1.18,"z-score of drug to no-drug ratio":-0.79,"Call":"inactive"}
{"gene knocked down":"Dnaaf2","reagent":1,"combined z-score class":"no change with or without drug","viability z-score with doxorubicin":-0.79,"viability z-score without drug":-0.84,"z-score of drug to no-drug ratio":-0.11,"Call":"inactive"}
{"gene knocked down":"Zfp473","reagent":1,"combined z-score class":"no change with or without drug","viability z-score with doxorubicin":0.67,"viability z-score without drug":-0.34,"z-score of drug to no-drug ratio":1.12,"Call":"inactive"}
{"gene knocked down":"Trp53rkb","reagent":1,"combined z-score class":"no change with or without drug","viability z-score with doxorubicin":-1.35,"viability z-score without drug":-1.35,"z-score of drug to no-drug ratio":-0.45,"Call":"inactive"}
{"gene knocked down":"Apeh","reagent":1,"combined z-score class":"no change with or without drug","viability z-score with doxorubicin":1.01,"viability z-score without drug":0.67,"z-score of drug to no-drug ratio":0.67,"Call":"inactive"}

Further reagents follow.
gene knocked down,reagent,combined z-score class,viability z-score with doxorubicin,viability z-score without drug,z-score of drug to no-drug ratio,Call
Naif1,1,no change with or without drug,-1.35,-1.18,-0.56,inactive
Mep1b,1,no change with or without drug,-0.34,0.17,-0.34,inactive
D630003M21Rik,1,high cell count without drug only,0.45,2.19,-0.79,inactive
Magea3,1,no change with or without drug,-1.24,-0.17,-1.12,inactive
Aff4,1,no change with or without drug,-0.11,1.52,-1.01,inactive
Emx2,1,no change with or without drug,0.22,0.67,-0.11,inactive
Col25a1,1,no change with or without drug,1.8,1.85,0.67,inactive
Hdhd2,1,no change with or without drug,0,-0.51,0.45,inactive
Gatad1,1,no change with or without drug,-1.12,-1.52,0,inactive
Rab8a,1,no change with or without drug,1.12,0,1.24,inactive
Atp8b2,1,no change with or without drug,-0.79,1.35,-1.57,inactive
Or8g54,1,no change with or without drug,-1.46,-1.35,-0.56,inactive
Npy,1,no change with or without drug,-1.12,0.67,-1.46,inactive
Vmn1r234,1,no change with or without drug,-0.22,1.52,-1.12,inactive
Zfpl1,1,no change with or without drug,1.8,1.85,0.67,inactive
Ntrk1,1,no change with or without drug,-0.45,-0.51,0,inactive
Etv5,1,no change with or without drug,1.57,1.35,0.79,inactive
Kifc3,1,no change with or without drug,-0.45,-0.84,0.22,inactive
Fyttd1,1,no change with or without drug,0.56,1.18,-0.11,inactive
Cilp,1,no change with or without drug,1.8,1.85,0.67,inactive
